Consider four molecules from patent US20050089926A1, “Ligand sensing fluorescent acetylcholinesterase for detection of organophosphate activity” (priority 2002, published 2005).

Numbering of substitutions follows the chain as printed. In names and notes the source's numbering stands. Read-outs that look alike come from different tables or passages of the source.

Series [1] has as its system mouse AChE mutants labeled with acrylodan. Particulars: for Acrylodan Emission Maxima, Conjugated TFK^0: acrylodan-labeled mutant; for Chromic Shift / Relative Quantum Yield: conjugated TFK^0.
In series [2] the test system is acrylodan-labeled mouse AChE mutants. Nature of the series: Acrylodan fluorescence emission with saturating edrophonium. The conditions noted are these: for Acrylodan Emission Maxima, Saturating Edrophonium: acrylodan-labeled mutant; for Chromic Shift / Relative Quantum Yield: saturating edrophonium.
In series [3] the test system is mouse AChE mutants labeled with acrylodan. Nature of the series: Acrylodan fluorescence emission, unliganded enzyme. The conditions noted are these: acrylodan-labeled mutant.
For series [4], the system named is acrylodan-labeled mouse AChE mutants. Nature of the series: Acrylodan fluorescence emission with saturating decamethonium. Particulars: for Acrylodan Emission Maxima, Saturating Decamethonium: acrylodan-labeled mutant; for Chromic Shift / Relative Quantum Yield: saturating decamethonium.
Series [5] shares this test system. Nature of the series: Acrylodan fluorescence emission with saturating tacrine. Particulars: for Acrylodan Emission Maxima, Saturating Tacrine: acrylodan-labeled mutant; for Chromic Shift / Relative Quantum Yield: saturating tacrine.
The test system is the same in series [6]. Kind of series: Acrylodan fluorescence emission with saturating huperzine A. Particulars: for Acrylodan Emission Maxima, Saturating Huperzine A: acrylodan-labeled mutant; for Chromic Shift / Relative Quantum Yield: saturating huperzine A.
The test system is the same in series [7]. Nature of the series: Acrylodan fluorescence emission with saturating BW284c51. Particulars: for Acrylodan Emission Maxima, Saturating BW284c51: acrylodan-labeled mutant; for Chromic Shift / Relative Quantum Yield: saturating BW284c51.
The test system of series [8] is mouse AChE mutants labeled with acrylodan. Kind of series: Acrylodan fluorescence emission with conjugated DDVP. Particulars: for Acrylodan Emission Maxima, Conjugated DDVP: acrylodan-labeled mutant; for Chromic Shift / Relative Quantum Yield: conjugated DDVP.
The test system is the same in series [9]. Kind of series: Acrylodan fluorescence emission with conjugated TFK+. Particulars: for Acrylodan Emission Maxima, Conjugated TFK+: acrylodan-labeled mutant; for Chromic Shift / Relative Quantum Yield: conjugated TFK+.
The test system of series [10] is acrylodan-labeled mouse AChE mutants. The conditions noted are these: edrophonium, tacrine or huperzine bound.
For series [11], the system named is mouse AChE mutants labeled with acrylodan. Particulars: acrylodan-labeled mutant, unliganded; data from Boyd et al. 2000; cited from earlier work.
Series [12] has the same test system. Particulars: saturating fasciculin; data from Boyd et al. 2000; cited from earlier work.

B1: E84C (protein, UniProt P21836 32-614, looked up, variant E84C)
Acetylcholinesterase: EGREDPQLLVRVRGGQLRGIRLKAPGGPVSAFLGIPFAEPPVGSRRFMPPEPKRPWSGVLDATTFQNVCYQYVDTLYPGFEGTCMWNPNRELSEDCLYLNVWTPYPRPASPTPVLIWIYGGGFYSGAASLDVYDGRFLAQVEGAVLVSMNYRVGTFGFLALPGSREAPGNVGLLDQRLALQWVQENIAAFGGDPMSVTLFGESAGAASVGMHILSLPSRSLFHRAVLQSGTPNGPWATVSAGEARRRATLLARLVGCPPGGAGGNDTELIACLRTRPAQDLVDHEWHVLPQESIFRFSFVPVVDGDFLSDTPEALINTGDFQDLQVLVGVVKDEGSYFLVYGVPGFSKDNESLISRAQFLAGVRIGVPQASDLAAEAVVLHYTDWLHPEDPTHLRDAMSAVVGDHNVVCPVAQLAGRLAAQGARVYAYIFEHRASTLTWPLWMGVPHGYEIEFIFGLPLDPSLNYTTEERIFAQRLMKYWTNFARTGDPNDPRDSKSPQWPPYTTAAQQYVSLNLKPLEVRRGLRAQTCAFWNRFLPKLLSATDTLDEAERQWKAEFHRWSSYMVHWKNQFDHYSKQERCSDL
As for B1, in series [1], the “Acrylodan Emission Maxima, Conjugated TFK^0” value is given as 507 nm; the “Chromic Shift” value amounted to 30 nm; the “Relative Quantum Yield” value is recorded as 0.59. In addition, in series [2], the “Acrylodan Emission Maxima, Saturating Edrophonium” value is reported as 510 nm; the “Chromic Shift” value worked out at 33 nm; the “Relative Quantum Yield” value is given as 0.60. In series [3], the “Acrylodan Emission Maxima, No Fasciculin” value is 477 nm. Further, in series [4], the “Acrylodan Emission Maxima, Saturating Decamethonium” value is 505 nm; the “Chromic Shift” value amounted to 28 nm; the “Relative Quantum Yield” value was 0.59. For the same molecule, in series [5], the “Acrylodan Emission Maxima, Saturating Tacrine” value came out at 510 nm; the “Chromic Shift” value is reported as 33 nm; the “Relative Quantum Yield” value is reported as 0.45. In [6], the “Acrylodan Emission Maxima, Saturating Huperzine A” value came to 510 nm; the “Chromic Shift” value worked out at 33 nm; the “Relative Quantum Yield” value came out at 0.55. Also, in series [7], the “Acrylodan Emission Maxima, Saturating BW284c51” value was found to be 512 nm; the “Chromic Shift” value is reported as 35 nm; the “Relative Quantum Yield” value came out at 0.47. In series [8], the “Acrylodan Emission Maxima, Conjugated DDVP” value is listed as 496 nm; the “Chromic Shift” value amounted to 19 nm; the “Relative Quantum Yield” value worked out at 0.39. Also, in [9], the “Acrylodan Emission Maxima, Conjugated TFK+” value is 512 nm; the “Chromic Shift” value is 35 nm; the “Relative Quantum Yield” value worked out at 0.52. For the same molecule, the “acrylodan emission maximum upon inhibitor binding” value in series [10] is 510 nm.

B2: H287C (protein, UniProt P21836 32-614, looked up, variant H287C)
Acetylcholinesterase: B1 Acetylcholinesterase with C84E, H287C
As to B2, in series [11], the “Acrylodan Emission Maxima, No Fasciculin” value is on record as 524 nm. Also, in series [12], the “Chromic Shift” value is −17 nm and the “Relative Quantum Yield” value was 5.0. In addition, in series [1], the “Acrylodan Emission Maxima, Conjugated TFK^0” value amounted to 524 nm; the “Chromic Shift” value was determined as 0 nm; the “Relative Quantum Yield” value worked out at 0.90. In series [2], the “Acrylodan Emission Maxima, Saturating Edrophonium” value was found to be 524 nm; the “Chromic Shift” value is given as 0 nm; the “Relative Quantum Yield” value was 1.13. In series [4], the “Acrylodan Emission Maxima, Saturating Decamethonium” value was 517 nm; the “Chromic Shift” value was −7 nm; the “Relative Quantum Yield” value was determined as 1.76. Besides, the hypsochromic shift in series [4] (addition of decamethonium, acrylodan conjugate) was 7 nm. In addition, in [5], the “Acrylodan Emission Maxima, Saturating Tacrine” value was 524 nm; the “Chromic Shift” value is 0 nm; the “Relative Quantum Yield” value stood at 1.13. In series [6], the “Acrylodan Emission Maxima, Saturating Huperzine A” value was found to be 524 nm; the “Chromic Shift” value was determined as 0 nm; the “Relative Quantum Yield” value amounted to 1.13. For the same molecule, in series [7], the “Acrylodan Emission Maxima, Saturating BW284c51” value is reported as 510 nm; the “Chromic Shift” value was −14 nm; the “Relative Quantum Yield” value is 2.73. Besides, in series [8], the “Acrylodan Emission Maxima, Conjugated DDVP” value amounted to 524 nm; the “Chromic Shift” value is 0 nm; the “Relative Quantum Yield” value was determined as 1.03. Besides, in series [9], the “Acrylodan Emission Maxima, Conjugated TFK+” value worked out at 524 nm; the “Chromic Shift” value worked out at 0 nm; the “Relative Quantum Yield” value is reported as 1.07.

B3: acrylodan-L76C (protein, UniProt P21836 32-614, looked up, variant L76C)
Acetylcholinesterase: B1 Acetylcholinesterase with L76C, C84E
modifications: acrylodan label
For B3, the “Acrylodan Emission Maxima, No Fasciculin” value in [3] is given as 505 nm. Also, the “acrylodan emission maximum upon inhibitor binding” value in series [10] was 509 nm.

B4: A262C (protein, UniProt P21836 32-614, looked up, variant A262C)
Acetylcholinesterase: B1 Acetylcholinesterase with C84E, A262C
Turning to B4, the “Acrylodan Emission Maxima, No Fasciculin” value in [11] is 517 nm. Further, in series [12], the “Chromic Shift” value is 0 nm and the “Relative Quantum Yield” value was 0.97. In series [1], the “Acrylodan Emission Maxima, Conjugated TFK^0” value is listed as 517 nm; the “Chromic Shift” value is reported as 0 nm; the “Relative Quantum Yield” value is 0.97. In series [2], the “Acrylodan Emission Maxima, Saturating Edrophonium” value was 517 nm; the “Chromic Shift” value was determined as 0 nm; the “Relative Quantum Yield” value is recorded as 0.97. Moreover, in series [4], the “Acrylodan Emission Maxima, Saturating Decamethonium” value was 517 nm; the “Chromic Shift” value was 0 nm; the “Relative Quantum Yield” value stood at 0.97. Moreover, in series [5], the “Acrylodan Emission Maxima, Saturating Tacrine” value was determined as 517 nm; the “Chromic Shift” value stood at 0 nm; the “Relative Quantum Yield” value worked out at 0.97. Besides, in series [6], the “Acrylodan Emission Maxima, Saturating Huperzine A” value is 517 nm; the “Chromic Shift” value is recorded as 0 nm; the “Relative Quantum Yield” value was 0.97. For the same molecule, in [7], the “Acrylodan Emission Maxima, Saturating BW284c51” value was determined as 517 nm; the “Chromic Shift” value is 0 nm; the “Relative Quantum Yield” value was 0.97. Also, in series [8], the “Acrylodan Emission Maxima, Conjugated DDVP” value is 517 nm; the “Chromic Shift” value came out at 0 nm; the “Relative Quantum Yield” value is listed as 0.97. Besides, in series [9], the “Acrylodan Emission Maxima, Conjugated TFK+” value is reported as 517 nm; the “Chromic Shift” value came out at 0 nm; the “Relative Quantum Yield” value is given as 0.97.
